Laboratory results reported in paper PMC10598209 (Nature Communications, 2023).
Changes are numbered by the printed parent chain. For some of these results: A negative result means that nothing was seen under these conditions. Where a protein sequence is shown, tags need not be part of it. For some of these results: The comparison behind a weaker result is the experiment's own reference, which may not be listed here. For some of these results: For at least one entry, the source does not settle the construct or the ends of the probe. For some of these results: At least one verdict rests on a figure or table, not on a statement of the authors.

Tests used:
[1] = target: T1, RSM, RECQ4(348-388) (Homo sapiens) (UniProt O94761); assay: EMSA; conditions: EMSA: 40 mM Tris-HCl pH 7.5, 25 mM KCl, 5 mM MgCl2, 2 mM DTT, 2% glycerol, 0.1 mg/mL BSA, 37 C, recombinant protein
T1 sequence: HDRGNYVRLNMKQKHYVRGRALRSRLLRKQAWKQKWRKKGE

[2] = target: T1, RSM, RECQ4(348-388) (Homo sapiens); assay: fluorescence anisotropy; conditions: high ionic strength (500 mM NaCl), FA: 25 mM KPO4 pH 6.5, 70 mM KCl (or 500 mM NaCl), 25 C, recombinant protein
[3] = target: T1, RSM, RECQ4(348-388) (Homo sapiens); assay: ITC; conditions: 70 mM KCl, pH 6.5, 30 C, Kd agrees with NMR, value not in text, ITC: same low-salt buffer, recombinant protein, label: 5' FITC on strand 1 (FA)
[4] = target: T2, RSM 5E mutant R375E,K376E,K380E,K382E,R384E (Homo sapiens) (UniProt O94761); assay: NMR; conditions: residual binding, no droplets, NMR dsDNA: 50 mM NaPO4 pH 6.0, 150 mM NaCl, 298 K, NMR G4: 25 mM KPO4 pH 6.5, 70 mM KCl, recombinant protein, residues 348-388, folded or branched DNA
T2 sequence (looked up): T1 sequence with R28E, K29E, K33E, K35E, R37E

[5] = target: T3, RSM W379A/W383A (Homo sapiens) (UniProt O94761); assay: NMR/droplet formation; conditions: forms droplets with both G4s, NMR dsDNA: 50 mM NaPO4 pH 6.0, 150 mM NaCl, 298 K, NMR G4: 25 mM KPO4 pH 6.5, 70 mM KCl, recombinant protein
T3 sequence (looked up): T1 sequence with W32A, W36A

Sequence: AGCTACCATGCCTGCACGAATTAAGCAATTCGTAATCATGGTCATAGCT (double strand) [ds49]
- binding result ([1]; increasing NaCl, less salt resistant than CEB1, label: 5' FITC on strand 1): binds more weakly

Sequence: AGGGGGGAGGGAGGGTGG [CEB1 parallel G4]
- binding result ([2]; label: 5' FITC or Cy3 (FA, EMSA), folded or branched DNA): binds more weakly

Sequence: CAGCGCTCGG (double strand) [ds10]
- binding result ([2]; not reliably detected, label: 5' FITC on strand 1 (FA)): no binding
- binding result [3]: binds

Sequence: CAGCGCTCGG [ss10]
- binding result ([2]; not reliably detected, label: 5' FITC (FA), single-stranded DNA): no binding

Sequence: GTTAACCCTAACCCTAAGAT [ss20]
- binding result ([1]; mixed pool with CEB1 G4, label: 5' FITC, single-stranded DNA): binds more weakly

Sequence: TTGGGTGGGTGGGTGGGT [T95-2T parallel G4]
- binding result [4]: binds more weakly
- binding result ([5]; residues 348-388, folded or branched DNA): binds

Sequence: TTGGGTTAGGGTTAGGGTTAGGGA [HT hybrid G4]
- binding result ([2]; label: 5' FITC (FA), folded or branched DNA): binds more weakly
- binding result ([5]; residues 348-388, label: 5' FITC (FA), folded or branched DNA): binds
